Test results as given in PMC11416636.
Substitutions are numbered along the chain they refer to. No constants are given. Whether binding was seen depends on the method and setting. Binding seen in cells or lysates may run through a third protein. Some entries that bind do so weakly or less than the wild type.

Sequences of proteins named here, by UniProt entry; tags and fusion partners are left off. Residues count along the entry.
UniProt P08575, residues 26-1306: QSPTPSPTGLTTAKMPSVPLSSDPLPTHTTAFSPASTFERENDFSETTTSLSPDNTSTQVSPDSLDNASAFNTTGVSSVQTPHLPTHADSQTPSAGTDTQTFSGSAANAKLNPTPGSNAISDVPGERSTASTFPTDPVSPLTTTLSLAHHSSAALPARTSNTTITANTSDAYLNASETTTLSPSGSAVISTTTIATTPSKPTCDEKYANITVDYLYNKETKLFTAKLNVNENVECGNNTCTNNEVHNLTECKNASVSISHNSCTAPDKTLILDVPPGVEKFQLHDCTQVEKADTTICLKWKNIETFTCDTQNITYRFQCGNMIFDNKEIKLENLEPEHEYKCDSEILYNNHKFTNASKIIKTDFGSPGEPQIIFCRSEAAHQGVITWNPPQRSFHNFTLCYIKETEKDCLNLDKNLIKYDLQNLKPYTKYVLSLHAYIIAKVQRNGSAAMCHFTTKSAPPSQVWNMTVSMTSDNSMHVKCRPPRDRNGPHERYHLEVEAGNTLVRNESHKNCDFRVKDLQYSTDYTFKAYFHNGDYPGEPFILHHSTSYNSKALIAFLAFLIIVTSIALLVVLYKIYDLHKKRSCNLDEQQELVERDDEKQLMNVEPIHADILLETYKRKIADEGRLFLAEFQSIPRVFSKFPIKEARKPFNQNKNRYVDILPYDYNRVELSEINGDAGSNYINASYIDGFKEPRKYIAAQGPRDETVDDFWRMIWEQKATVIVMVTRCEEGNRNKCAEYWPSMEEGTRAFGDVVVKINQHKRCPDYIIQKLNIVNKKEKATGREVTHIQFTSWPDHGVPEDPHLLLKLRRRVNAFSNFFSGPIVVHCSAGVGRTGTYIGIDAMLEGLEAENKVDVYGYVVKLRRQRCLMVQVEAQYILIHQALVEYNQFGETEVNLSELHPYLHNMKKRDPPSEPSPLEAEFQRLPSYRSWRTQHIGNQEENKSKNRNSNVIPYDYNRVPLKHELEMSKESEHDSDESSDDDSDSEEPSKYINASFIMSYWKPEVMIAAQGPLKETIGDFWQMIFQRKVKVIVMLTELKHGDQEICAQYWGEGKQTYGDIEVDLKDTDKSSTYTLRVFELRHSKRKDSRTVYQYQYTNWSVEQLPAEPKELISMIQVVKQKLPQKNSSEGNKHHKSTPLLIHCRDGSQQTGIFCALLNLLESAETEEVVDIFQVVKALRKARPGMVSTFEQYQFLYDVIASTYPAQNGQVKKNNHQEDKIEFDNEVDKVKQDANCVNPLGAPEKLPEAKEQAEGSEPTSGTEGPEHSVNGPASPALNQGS

What was measured:
[1] = target: T1, ALFA-CD53 F44E ("closed" CD53) (UniProt P19397); experiment: proximity ligation; proximity ligation assay between ALFA-tagged tetraspanin (WT or mutant) and the endogenous partner in transfected KO BJAB cells; details in the Supporting Information
T1 sequence: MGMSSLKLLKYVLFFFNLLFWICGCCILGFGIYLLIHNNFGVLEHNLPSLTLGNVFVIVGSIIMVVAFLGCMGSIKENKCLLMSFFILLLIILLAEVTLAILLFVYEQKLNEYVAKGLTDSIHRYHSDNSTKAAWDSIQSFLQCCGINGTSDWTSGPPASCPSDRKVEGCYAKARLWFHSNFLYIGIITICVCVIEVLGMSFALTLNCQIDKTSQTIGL

ALFA-CD53 WT = target: T2, ALFA-CD53 WT (UniProt P19397); experiment: co-IP; IP of ALFA-tagged tetraspanin (WT or mutant) from transfected KO BJAB cells, blot for the endogenous partner; signal of the co-precipitated partner divided by the signal of the precipitated tetraspanin, normalised to WT
T2 sequence: T1 sequence with E44F

[2] = target: T1, ALFA-CD53 F44E ("closed" CD53); experiment: as above

binding [1]: binds | binding (ALFA-CD53 WT): binds | binding [2]: binds
Substance: CD45 (from UniProt P08575 26-1306)
